Patent US6344217B1, “Putamen OVI” (priority 1994, dated 2002)

Key:
[1] = tested on: Male Wistar rats; test: Clinical-chemical serum parameters after 7-day treatment of rats; format: in vivo, rat; details: change vs control (=100%), 7 days intragastral
Procedure: (§1) Male Wistar rats having an average body weight of 322.5 g were kept under conventional conditions at a room temperature of 21±1° C., a relative atmospheric humidity of about 60% and a 12 hour day/night cycle. Prior to the start of the experiment, they where subjected to an acclimatization to those keeping conditions for 12 days.
(§2) Feeding was performed with the pelletized standard diet Altromin C 1000, Misch. Nr. 100 (Altrogge). The animals were given tap water ad libidum as drinking water.
1. […]
Parameters such as enzymes, glucose, lipids, electrolytes, creatinin, urea and protein are detected selectively, method-oriented, photometrically or ion-selectively using the analyzer Cobas Mira. […]
The following clinical-chemical metabolic measurement values were analyzed in a combined method-specific manner: Bilirubin, creatinin, urea, glutamate oxalacetate transaminase (GOT), glutamate pyruvate transaminase (GPT), gamma-glutamyl transferase (GGT), glucose, cholesterol, triglycerides, calcium, sodium, potassium, chloride and total protein. […]

[2] = tested on: Male Wistar rats; test: Leucocyte/lymphocyte differentiation by flow cytometry after 7-day treatment of rats; format: in vivo, rat; details: change vs control (=100%), 7th day of treatment, peripheral blood
Procedure: as §1, §2
1. Coated tablet core granules, micronized with putamen ovi; 1 coated tablet core aar® os with 640 mg contains 440 mg of putamen ovi, micronized, corresponding to 160 mg of calcium; Dosage form: Putamen ovi, coated tablet core granules, 146 mg (≡100 mg of putamen ovi, micronized≈36.5 mg of Ca) is suspended in 2 ml of dist. water (POS), 0.5 ml (POS)≡9.125 mg of Ca (PO)/[…]
The suspension were freshly prepared immediately before the administration and homogeneously administered. […]
The lymphocyte differentiation was performed after specific monoclonal incubation by means of fluorescence-activated cell sorting (fluorescence measurement).
On the 7th day of treatment, there were analyzed quantitatively: […]
5 μl each of the antibodies is incubated with 50 μl of Na-EDTA-blood at room temperature in the dark for 20 min. […] The suspension is analyzed by means of the flow cytometer. […]

NS(=O)(=O)c1cc(C(=O)O)c(NCc2ccco2)cc1Cl [FUR, Furosemide]
SP (acid phosphatase) [1]: −9.1%
polymorphs (polymorphonuclear granulocytes) [2]: +65.7%
